Measurements taken from PubChem BioAssay AID1671190 (National Center for Advancing Translational Sciences (NCATS), 2021).
The whole screen tested about 580,000 compounds, of which about 6,100 (1.1%) were called active. Inconclusive results, whose numbers are uncertain, are shown with a selection of clear calls. The call rests on the fitted dose curve; in most records, active means well fitted inhibition curve with a large enough effect; inconclusive means small, poorly fitted or top-dose-only effect, or another doubt; inactive means no such curve, though single readings can be large or run the other way. A potency beside an inconclusive call is a rough fit, not a confirmed value.

The chains behind the UniProt entries cited, without tags or fusion partners. Where a name states a change or a piece, a line headed by the entry shows the natural chain unless it says otherwise.
UniProt P18054: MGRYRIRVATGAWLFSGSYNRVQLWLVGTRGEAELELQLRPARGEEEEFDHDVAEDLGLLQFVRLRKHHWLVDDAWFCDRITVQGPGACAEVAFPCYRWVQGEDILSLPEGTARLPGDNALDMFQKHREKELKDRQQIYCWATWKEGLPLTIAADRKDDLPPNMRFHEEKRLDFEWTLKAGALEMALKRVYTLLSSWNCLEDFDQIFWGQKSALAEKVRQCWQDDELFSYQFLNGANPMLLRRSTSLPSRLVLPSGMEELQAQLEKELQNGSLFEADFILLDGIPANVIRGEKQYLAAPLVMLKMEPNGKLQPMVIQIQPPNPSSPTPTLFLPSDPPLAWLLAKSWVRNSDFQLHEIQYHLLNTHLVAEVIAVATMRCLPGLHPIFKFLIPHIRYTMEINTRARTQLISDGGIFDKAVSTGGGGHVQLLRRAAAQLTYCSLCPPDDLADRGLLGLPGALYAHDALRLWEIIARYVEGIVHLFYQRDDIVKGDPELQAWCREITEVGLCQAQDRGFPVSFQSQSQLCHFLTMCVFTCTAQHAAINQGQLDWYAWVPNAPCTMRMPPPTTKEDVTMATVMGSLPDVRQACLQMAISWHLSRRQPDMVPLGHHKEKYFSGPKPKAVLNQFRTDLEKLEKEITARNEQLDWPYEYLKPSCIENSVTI

The compounds below were run against Polyunsaturated fatty acid lipoxygenase ALOX12 (Homo sapiens) (UniProt P18054) (assay: Primary qHTS assay for inhibitors of human arachidonate 12S-lipoxygenase (ALOX12): Round 2). Conditions: purified 12hLO, xylenol orange hydroperoxide absorbance; activity change, negative = inhibition: at 108 µM (top of the series) unless noted.
How it was run: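 Purified human 12hLO at 150 nM in 25 mM Hepes, 0.01% Triton X-100, pH 7.0, preincubated 15 min at room temperature with compound. Reaction started with 40 uM arachidonic acid, 30 min at room temperature. Hydroperoxide measured by Fe-xylenol orange, 573/405 nm absorbance ratio.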
On the % scale 0 is the no-effect control and ±100 the full control effect; potency means the concentration at half of the fitted maximal effect.

Compound | Potency | activity change, negative = inhibition
CN(C)C(=O)c1ccc(-c2nccc(Nc3ccc(F)cc3)n2)cc1 | inconclusive: 22.4 µM [inhibitor, partial curve, poor fit] | –
CCc1ccc2occ(CC(=O)N(Cc3cccs3)C3CCS(=O)(=O)C3)c2c1 (centres undefined) | inconclusive: 112 µM [inhibitor, partial curve, poor fit] | –
COc1ccc(/C=C/C(=O)NC(=S)NNC(=O)c2ccco2)cc1 | inconclusive: 22.4 µM [inhibitor, single point] | –
Cc1ccc2c(c1)C(=O)C(=O)N2Cc1ccc(Cl)cc1 | inconclusive: 56.2 µM [inhibitor, partial curve, poor fit] | –
C[S+](=O)([O-])N1C[C@H](C(=O)Nc2cccc(Cl)c2)C[C@@H]1c1ccc(F)cc1 | inconclusive: 100 µM [inhibitor, partial curve, poor fit] | –
COc1ccccc1-c1coc2c(CN3CCN(C)CC3)c(O)ccc2c1=O | inconclusive: 44.7 µM [inhibitor, partial curve, poor fit] | –
COc1ccccc1C(=O)Nc1ccncc1 | – | inactive: 52.2%
O=C1C(c2ccccc2)=S=C2C=Cc3ccccc3N12 | active: 22.4 µM | –
COc1ccc2c(c1)c1ncn(CCN3CCCC3)c(=O)c1n2C | – | inactive: -3.44%
CCOc1ccc(C2C(C(=O)c3ccco3)=C(O)C(=O)N2CCN2CCOCC2)cc1OCC (centres undefined) | inconclusive: 31.6 µM [inhibitor, partial curve, poor fit] | –
Cc1cc(C)c(N=C2CCCN2Cc2ccccc2)c(C#N)c1 | – | inactive: 0%
Cc1nnc(N2CCC(C(=O)NCCc3ccccc3Cl)CC2)c2nn(-c3ccccc3)c(C)c12 | – | inactive: -18.4%
CCOC(=O)N1CCN(c2c(F)cc3[nH]c(=S)[nH]c3c2Br)CC1 | inconclusive: 15.8 µM [inhibitor, full curve] | –
CCCn1c(=O)n(CC(=O)Nc2ccc(N3CCOCC3)cc2)c(=O)c2c1nc(C)n2CCOC | – | inactive: -4.22%
CSc1ccc(/C=C/C(=O)c2ccc(O)cc2)cc1 | inconclusive: 50.1 µM [inhibitor, partial curve, poor fit] | –
Cc1nn2c(c1-c1ccccc1Oc1ccccc1)N(Cc1cccc(C#N)c1)CCC2 | inconclusive: 28.2 µM [inhibitor, partial curve] | –
COc1ccc(-c2c3c(=O)n(C)c(=O)n(C)c3c3c(C)nc4ccccc4n23)cc1 | inconclusive: 56.2 µM [inhibitor, partial curve, poor fit] | –
CN(Cc1nc2ccccc2n1C(F)F)S(=O)(=O)c1cc(Cl)ccc1Cl | inconclusive: 22.4 µM [inhibitor, partial curve, poor fit] | –
COCc1c(C(=O)NCC(c2ccco2)N2CCCC2)sc2cccc(F)c12 (centres undefined) | inconclusive: 79.4 µM [inhibitor, single point] | –
CCOC(=O)c1scc(-c2ccccc2)c1S(=O)(=O)Nc1cc(C)cc(C)c1 | inconclusive: 28.2 µM [inhibitor, partial curve, poor fit] | –
CC(C)(C)c1ccc(-c2nc(SCCCOc3ccccc3)n3[nH]c(=O)cc3n2)cc1 | inconclusive: 89.1 µM [inhibitor, partial curve, poor fit] | –
COc1nc(N(c2ccccc2)c2ccccc2)nc(-n2ccnc2)n1 | – | inactive: -9.44%
CCOC(=O)Cn1c(=O)n(-c2ccccc2OC)c2nc(-c3cccc(F)c3)nc(C(N)=O)c21 | active: 11.2 µM | –

Compound | Potency | activity change, negative = inhibition
CC(=O)c1c[nH]c2cc(F)ccc12 | – | inactive: 3.43%
CCOc1cc(/C=C2\SC(N)=NC2=O)ccc1O | inconclusive: 56.2 µM [inhibitor, partial curve, poor fit] | –
Cc1ccc(NC(=O)CSc2nnc(-c3ccco3)c(-c3ccco3)n2)cc1 | inconclusive: 35.5 µM [inhibitor, single point] | –
Oc1ccc(N=Nc2ccccc2)cc1 | – | inactive: 1.53%
Cc1ccc2nc(NC(=O)C3CC(=O)N(c4n[nH]c5ccccc45)C3)sc2c1 (centres undefined) | inconclusive: 39.8 µM [inhibitor, partial curve] | –
CCS(=O)(=O)N1CCCC(C(=O)Nc2ccccc2Oc2cccnc2)C1 (centres undefined) | – | inactive: 27.4%
COc1cc(C(=O)Nc2ccc(S(=O)(=O)Nc3nccc(C)n3)cc2)cc(OC)c1OC | – | inactive: 0.667%
COc1cc2[nH]c(-c3ccc(C)cc3)cc(=O)c2cc1OC | – | inactive: -19.7%
COc1ccc(C(=O)N2CCC(O)(c3ccc(Cl)cc3)CC2)cc1OC | inconclusive: 100 µM [inhibitor, single point] | –
C[C@@H]1COC(=O)[C@H](NC(=O)OCC2c3ccccc3-c3ccccc32)C/C=C\C[C@@H](CC(=O)N[C@H](CO)Cc2ccccc2)C(=O)N1 | inconclusive: 44.7 µM [inhibitor, partial curve, poor fit] | –
Cc1cccc(C)c1NC(=O)c1nc2ccc([N+](=O)[O-])cc2nc1-c1ccccc1 | inconclusive: 63.1 µM [inhibitor, partial curve, poor fit] | –
CS(=O)(=O)N(CC(=O)N1CCN(Cc2ccccc2)CC1)C1CCCCC1 | – | inactive: 0%
O=C(O)c1ccccc1NS(=O)(=O)c1ccc(N/N=C/c2cccc(O)c2O)c([N+](=O)[O-])c1 | active: 39.8 µM | –
COc1ccc(-c2cc(=O)c3cc(C)ccc3[nH]2)cc1 | – | inactive: -26.8%
Cc1ccc2nc3c(cc2c1)c(NC(=O)c1cccnc1)nn3C | inconclusive: 50.1 µM [inhibitor, partial curve, poor fit] | –
CCCc1c(-c2ccc(F)cc2F)ncn1Cc1ccccc1OC | inconclusive: 141 µM [inhibitor, single point] | –
COc1ccc(C(=O)CN2CCN(CCN3C(=O)c4cccc5cccc(c45)C3=O)CC2)cc1 | inconclusive: 35.5 µM [inhibitor, single point] | –
Cc1cccnc1NC(=O)c1cccc(NC(=O)CC2SC(N3CCCCC3)=NC2=O)c1 (centres undefined) | inconclusive: 35.5 µM [inhibitor, partial curve, poor fit] | –
Cc1ccc(CN2CCCCCCNC(=O)CC2c2ccccc2)s1 (centres undefined) | inconclusive: 25.1 µM [inhibitor, partial curve, poor fit] | –
O=C(NC1CCCC1)c1ccccc1-c1ccccc1 | – | inactive: 3.5%
Cc1ccc(NC(=O)CSC2CCCC2)c(Br)c1 | inconclusive: 2.24 µM [inhibitor, full curve, poor fit] | –
CC(C)NC(=O)NC1CCCc2c1cnn2-c1ccc(F)cc1F (centres undefined) | – | inactive: 6.5%
Cc1ccc2c(c1)-c1c(cnc3cc(-c4ccccc4)nn13)CO2 | – | inactive: -13.5%

Compound | Potency | activity change, negative = inhibition
COc1ccc2c([N+](=O)[O-])c(-c3ccccc3)[nH]c2c1 | inconclusive: 79.4 µM [inhibitor, partial curve, poor fit] | –
O=C(NCCN1CCc2ccccc2C1)c1ccc(Cl)cc1 | inconclusive: 31.6 µM [inhibitor, partial curve, poor fit] | –
CC(C)(Oc1nn(CC2CCOCC2)c2ccccc12)C(=O)NC1CCOCC1 | – | inactive: 51.1% [at 176 µM]
O=C(c1cc(F)ccc1F)N1CCC(c2n[nH]c(=O)n2-c2ccccc2)CC1 | inconclusive: 70.8 µM [inhibitor, partial curve, poor fit] | –
CCSc1ccc2nnc(-c3cccc(F)c3)n2n1 | inconclusive: 5.01 µM [inhibitor, full curve, poor fit] | –
COc1ccc(/C=C2\SC(=S)N(N3CCOCC3)C2=O)c(OC)c1 | – | inactive: 27.1%
COc1cccc(CNC(=O)CNS(=O)(=O)c2ccc(Br)s2)c1 | – | inactive: -19.8%
COc1ccc(NC(=O)NCCN2CCN(c3ccc(C)cc3)CC2)c(Cl)c1 | inconclusive: 39.8 µM [inhibitor, single point] | –
Cc1ccccc1-n1c(SCc2ccc(Cl)cc2)nc2[nH]ncc2c1=O | inconclusive: 50.1 µM [inhibitor, partial curve, poor fit] | –
CC(=O)NC(Cc1c[nH]c2ccccc12)C(=O)N1CCN(S(=O)(=O)c2ccccc2F)CC1 (centres undefined) | – | inactive: 28.4%
O=C(O)CSc1ccc(NC(=O)Nc2ccccc2F)cc1 | inconclusive: 35.5 µM [inhibitor, single point] | –
O=C(O)c1ccc(C[n+]2c(-c3ccccc3)csc2Nc2ccccc2)cc1 | inconclusive: 50.1 µM [inhibitor, partial curve, poor fit] | –
CCC(C)c1ccc2oc(-c3ccc(N)cc3)nc2c1 (centres undefined) | inconclusive: 89.1 µM [inhibitor, single point] | –
CCCCNC(=S)NNC(=O)c1ccco1 | – | inactive: -1.42%
CCOC(=O)C(C(=O)OCC)N(C#N)c1nc(C)cc(C)n1 | – | inactive: 8.08%
CCC(C)NC(=O)c1ccc2c(c1)N(Cc1ccccc1)C(=O)c1ccccc1S2 (centres undefined) | inconclusive: 70.8 µM [inhibitor, partial curve, poor fit] | –
NC(=O)CCn1c(C(=O)c2ccc(Cl)cc2)c2ccccc2[n+]1[O-] | inconclusive: 5.62 µM [inhibitor, full curve, poor fit] | –
COc1ccc(-c2cc3c(c4c2ccn4C)C2CCC3C2)cc1F (centres undefined) | – | inactive: -45.7%
CC1=CC(=NNS(=O)(=O)c2ccc([N+](=O)[O-])cc2)CC(C)(C)C1 | inconclusive: 50.1 µM [inhibitor, partial curve, poor fit] | –
Cc1cc(Cl)ccc1OC(C)C(=O)N/N=C(\CCC(=O)O)c1ccccc1 (centres undefined) | inconclusive: 0.158 µM [inhibitor, full curve, poor fit] | –
Cc1c(-c2ccc(O)cc2)nn(-c2ccc(O)cc2)c1-c1ccc(OCCN2CCCCC2)cc1 | active: 20 µM | –
O=C(N/N=C/C1CC=CCC1)C1CCCCC1 (centres undefined) | – | inactive: 1.47%
COc1ccc(CCC(=O)Nc2ccc(C)c(S(=O)(=O)N(C)C)c2)cc1OC | – | inactive: 12.3%

Four records picked at random from the list so far, as already listed:
Compound | Potency | activity change, negative = inhibition
NC(=O)CCn1c(C(=O)c2ccc(Cl)cc2)c2ccccc2[n+]1[O-] | inconclusive: 5.62 µM [inhibitor, full curve, poor fit] | –
COc1ccc(-c2cc3c(c4c2ccn4C)C2CCC3C2)cc1F (centres undefined) | – | inactive: -45.7%
CCOC(=O)C(C(=O)OCC)N(C#N)c1nc(C)cc(C)n1 | – | inactive: 8.08%
CC1=CC(=NNS(=O)(=O)c2ccc([N+](=O)[O-])cc2)CC(C)(C)C1 | inconclusive: 50.1 µM [inhibitor, partial curve, poor fit] | –
